Reference: paper PMC5395757
These are yes or no findings as the source states them, for the method shown. In cells and extracts the contact can be indirect. Some binding calls cover weakened binding; strength is not graded here.

By UniProt entry, the sequences of proteins in these tests, tags left out. Residues count along the entry.
UniProt P16070, residues 21-742: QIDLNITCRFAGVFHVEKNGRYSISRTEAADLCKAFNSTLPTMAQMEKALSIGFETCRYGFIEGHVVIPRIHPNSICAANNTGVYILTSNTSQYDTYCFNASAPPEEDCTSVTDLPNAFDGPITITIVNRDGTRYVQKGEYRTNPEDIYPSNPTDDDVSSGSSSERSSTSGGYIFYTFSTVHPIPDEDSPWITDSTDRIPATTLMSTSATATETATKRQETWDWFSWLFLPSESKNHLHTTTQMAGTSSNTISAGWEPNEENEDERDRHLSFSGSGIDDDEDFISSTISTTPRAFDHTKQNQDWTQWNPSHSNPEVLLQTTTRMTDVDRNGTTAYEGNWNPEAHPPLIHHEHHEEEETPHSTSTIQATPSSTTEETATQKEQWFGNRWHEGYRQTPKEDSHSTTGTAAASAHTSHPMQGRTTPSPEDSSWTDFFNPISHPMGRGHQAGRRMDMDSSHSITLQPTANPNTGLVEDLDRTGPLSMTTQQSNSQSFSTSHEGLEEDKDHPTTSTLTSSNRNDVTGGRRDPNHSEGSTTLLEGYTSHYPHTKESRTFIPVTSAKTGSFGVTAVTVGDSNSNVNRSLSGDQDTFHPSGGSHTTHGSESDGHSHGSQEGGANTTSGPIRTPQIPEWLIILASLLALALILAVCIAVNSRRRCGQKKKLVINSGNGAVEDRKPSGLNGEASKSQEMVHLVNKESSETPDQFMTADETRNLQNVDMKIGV

Target: CD44 (human (endogenous in TIG-3S)) (UniProt P16070)
Experiment: co-IP; IP of CD44 with anti-CD44 antibody and protein G magnetic beads, immunoblot of EGFR; lysis buffer 50 mM Tris-HCl pH 7.4, 150 mM NaCl, 0.1% SDS, 1% sodium deoxycholate, 1% NP-40; TIG-3S fibroblasts after TGF-β1 stimulation; control vs 2 mM BGN-treated, control vs 100 U/ml sialidase-treated EP fibroblasts; EP vs LP vs 2 mM zanamivir-treated LP fibroblasts

## epidermal growth factor receptor (from UniProt P00533 25-1210)
  binding: binds
